This series is described as follows: pH and temperature dependence of α-galactosidase activity of recombinant Aga-I and Aga-II. It counts as biochemical. How it is done: α-galactosidase assay of E. coli extracts—α-galactosidase activity was assayed as described by Smart and Pharr [Smart and Pharr (1980) Plant Physiol. 66:731-734] and as performed by Gao and Schaffer (1999) Plant Physiol. 119:979-987]. Reaction was initiated by adding 50 μl enzyme aliquot to 200 μl McIlvaine buffer (made by mixing stock solutions of 0.1M citric acid and 0.2M sodium hydrogen phosphate to achieve pH of 5.0 and 7.0 for the assay of acid and alkaline activity, respectively) and 50 μl substrate (final concentration, 5 mM for pNPG and 10 mM for the natural substrates). […] Substrates used were the synthetic substrates based on p-nitrophenol (pNP-sugars), including the pNPa-gal (Sigma) and the natural substrates stachyose, raffinose and melibiose. In addition, substrate concentration dependence of the reaction was measured by varying the substrate concentrations from 0-10 mM. Km and Vmax values were calculated using Lineweaver-Burk plots.

B1: Aga-I: Cucumis melo alkaline-α-galactosidase I, SEQ ID NO: 6, encoded by SEQ ID NO: 5 (protein)
chain: MTVGAGITISDANLTVLGNRVLSDVHNNITLTAAPGGGVMNGAFIGVQSDQIGSRRVFPIGKLIGLRFLCAFRFKLWWMTQRMGCSGQEVPFETQFLVVETRDGSNIAGNGEEGDAVYTVFLPILEGDFRAVLQGNDNNEIEICLESGDPSVDGFEGSHLVFVGAGSDPFETITYAVKSVEKHLQTFAHRERKKMPDILNWFGWCTWDAFYTDVTSDGVKKGLESFENGGIPPKFVIIDDGWQSVAKDATSADCKADNTANFANRLTHIKENYKFQKDGKEGERIENPALGLQHIVSYMKEKHATKYVYVWHAITGYWGGVSAGVKEMEQYESKIAYPVASPGVESNEPCDALNSITKTGLGLVNPEKVFNFYNEQHSYLASAGVDGVKVDVQNILETLGAGHGGRVKLARKYHQALEASISRNFQDNGIISCMSHNTDGLYSSKRNAVIRASDDFWPRDPASHTIHIASVAYNSLFLGEFMQPDWDMFHSLHPMAEYHGAARAVGGCAIYVSDKPGQHDFNLLKKLVLPDGSILRAKLPGRPTKDCLFTDPARDGKSLLKIWNLNDLSGVVGVFNCQGAGWCKVGKKNLIHDENPDTITGVIRAKDVSYLWKIAGESWTGDAVIFSHLAGEVVYLPQDASMPITLKPREFDVFTVVPVKELVNDIKFAPIGLIKMFNSGGAVKEMNHQPGSSNVSLKVRGSGPFGAYSSSKPKRVAVDSEEVEFMYDEGGLITIDLKVPEKELYLWDIRIEL
modifications: Cucumis melo
Turning to B1, the “temperature above which activity was significantly decreased” value (data not shown) was “above 40 °C”. The “temperature range of activity” value (recombinant enzyme) was 30-37 °C.

The values above are taken from US7560262B2, “Polynucleotide sequences encoding alkaline α-galactosidases and methods of using same” (The State of Israel - Ministry of Agriculture & Rural …, priority 2002, dated 2009).
